Reference: article PMC7819943, “Rice protein-binding microarrays: a tool to detect cis-acting elements near promoter regions in rice”
The other results are listed elsewhere or left out.

The sequences below were run against T1, OsSMF1 (Oryza sativa, UniProt Q6ZLB0 1-436) (assay: protein-binding microarray (RPBM); PBS, 2% BSA, 51.3 ng/ul salmon testes DNA, 50 uM zinc acetate, 200 nM TF, 25 C, 1 h; high values mean tight binding). Details: protein: recombinant; tags: N-terminal polyhistidine and DsRed monomer fusion (pET32a); chain copies: 2; label: CyDye5-dUTP incorporated in the synthesized complementary strand; 3' TTTTT single-stranded linker to array surface; dsDNA, one strand shown.
T1 sequence: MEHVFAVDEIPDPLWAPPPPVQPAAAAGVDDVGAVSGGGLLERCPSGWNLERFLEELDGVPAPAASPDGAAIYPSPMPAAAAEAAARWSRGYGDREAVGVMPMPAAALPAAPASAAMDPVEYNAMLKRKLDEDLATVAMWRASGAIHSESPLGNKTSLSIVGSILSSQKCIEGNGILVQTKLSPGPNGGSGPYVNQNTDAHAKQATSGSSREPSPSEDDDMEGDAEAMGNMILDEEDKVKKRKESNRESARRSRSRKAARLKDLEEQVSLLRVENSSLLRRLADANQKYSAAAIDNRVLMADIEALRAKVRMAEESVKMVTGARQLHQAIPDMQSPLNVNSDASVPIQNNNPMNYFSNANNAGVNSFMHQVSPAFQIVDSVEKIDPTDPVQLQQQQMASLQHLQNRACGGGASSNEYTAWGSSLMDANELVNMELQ
Method in brief: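 For the binding signal, per-feature fluorescence intensity was read in arbitrary units on an Axon 4000B scanner. Before scanning, a 2% BSA-blocked custom Agilent array made double-stranded with Cy5-dUTP was washed after 1 h at 25 °C with 200 nM protein and 50 µM zinc acetate. The proteins were Ni–NTA-purified transcription factors with N-terminal polyhistidine and DsRed fusions, expressed in E. coli BL21-CodonPlus.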

First: CCTTGTTATAAGCCACACCACATCACACACCCCTCTCATTCGGAGTCACCTAGTGCAG
Second: TGGATGGAGGAGCGATCACCCACCCAATAGGAATTCCGGACGGAGTCACCTAGTGCAG
The binding signal of the first is lower: 4520 fluorescence intensity (a.u.) for the first, 6100 fluorescence intensity (a.u.) for the second.

First: ACTCAGCCTCTCCAACGACGATGACGACACCGGCCAACATCGGAGTCACCTAGTGCAG
Second: AGCTCCTCCTTGGACGCGGCGATGACGCGCTTGCAGTCGTCGGAGTCACCTAGTGCAG
The binding signal of the first is lower: 3880 fluorescence intensity (a.u.) for the first, 5680 fluorescence intensity (a.u.) for the second.

Going from “CCAGAGGCCGCGAGCGGTGGCATCGTCATCGCAATATCAACGGAGTCACCTAGTGCAG” to “TGCCGTGGGATGGGGTTGCGGGAGGAGGAGGGTGCTACTACGGAGTCACCTAGTGCAG”, the binding signal falls from 3760 fluorescence intensity (a.u.) to 3380 fluorescence intensity (a.u.).

Going from “TCTCCAGCGTCACCACGGCACGCAGTCACGCACCGCCCTCCGGAGTCACCTAGTGCAG” to “TAGAGGCATTTCGGTATGGGCATATGTGAGGAAAATTGGGCGGAGTCACCTAGTGCAG”, the binding signal falls from 5450 fluorescence intensity (a.u.) to 3450 fluorescence intensity (a.u.).

Going from “CTTCGCCGTCTGACCCGTCAGCCACCATGCGCCGTCTCCGCGGAGTCACCTAGTGCAG” to “ATAAGTTATACTTAAAATACTTTTGATAATAAAACAAATCCGGAGTCACCTAGTGCAG”, the binding signal rises from 4500 fluorescence intensity (a.u.) to 20400 fluorescence intensity (a.u.).

Compared with “ATCCAAGCCACGTCACCCTGATCTATCTAAACCCACCTTTCGGAGTCACCTAGTGCAG”, “TCGTCGATGTCACCGCCACCACCGTCGTCATCGCTGCCTTCGGAGTCACCTAGTGCAG” is lower in binding signal: 27500 fluorescence intensity (a.u.) for the first, 3820 fluorescence intensity (a.u.) for the second.

First: TGCATCAATGGTGGCTTGGCTTTCATGTCGCTCCTTGTCGCGGAGTCACCTAGTGCAG
Second: TAAAAGCCAAGCACCATCTCGAAGTCTTCTTCCTCCTCCACGGAGTCACCTAGTGCAG
The binding signal of the first is lower: 3140 fluorescence intensity (a.u.) for the first, 12500 fluorescence intensity (a.u.) for the second.

Compared with “GCTCGCCGTCTGCACGACCGTCGACTCGACGCGGTTGCTCCGGAGTCACCTAGTGCAG”, “AGCCGTCCTCGTACGTACATAAATTAGCTGGCGAATCTGGCGGAGTCACCTAGTGCAG” is lower in binding signal: 36100 fluorescence intensity (a.u.) for the first, 3360 fluorescence intensity (a.u.) for the second.

Going from “CGTGCTGTACTGCGTTACATGCAGCGTGACACGCTTGACCCGGAGTCACCTAGTGCAG” to “TAAGTACCAAAATGCCCCTAGACACGTATTGTTCTTCCTCCGGAGTCACCTAGTGCAG”, the binding signal rises from 3160 fluorescence intensity (a.u.) to 6390 fluorescence intensity (a.u.).

First: ACCTCGCCGCGCACCCCTCCCCTCCCCATGTCCTCGCCTTCGGAGTCACCTAGTGCAG
Second: CATGGCAAAATCGTGTCGACATATATGACCTGGGCACCCCCGGAGTCACCTAGTGCAG
The binding signal of the first is lower: 4060 fluorescence intensity (a.u.) for the first, 4450 fluorescence intensity (a.u.) for the second.

Compared with “GTTTCCGGGGTGACATGTGCATATATCACTTTTGGTTCCGCGGAGTCACCTAGTGCAG”, “TAAACAATATATACCAATTTAATCAACGGTCGAGAAATACCGGAGTCACCTAGTGCAG” is higher in binding signal: 3900 fluorescence intensity (a.u.) for the first, 38300 fluorescence intensity (a.u.) for the second.

Compared with “TAATCATGGGCTTTTAATTCGGCCCAGTTAGGCAAATTTGCGGAGTCACCTAGTGCAG”, “TTTAGGGCTGATATAAGCTAATGTTGTTGTGAGTCATGGGCGGAGTCACCTAGTGCAG” is higher in binding signal: 3200 fluorescence intensity (a.u.) for the first, 7420 fluorescence intensity (a.u.) for the second.

Compared with “TGAAGCAAGCACCCACATTTCACCATGACACCACCACCACCGGAGTCACCTAGTGCAG”, “AATGGATCCTGGCCGGCCGTGTACATACGTCATAGGCCATCGGAGTCACCTAGTGCAG” is higher in binding signal: 3680 fluorescence intensity (a.u.) for the first, 4690 fluorescence intensity (a.u.) for the second.

First: GCATTGGCGGGCCGCGCCGCGCGTGTAGACGTGCGGTCAGCGGAGTCACCTAGTGCAG
Second: GCGCCAGTAGCCACGGTGGCATCCAGAAGTCCACAGCGAGCGGAGTCACCTAGTGCAG
The binding signal of the first is lower: 3160 fluorescence intensity (a.u.) for the first, 3640 fluorescence intensity (a.u.) for the second.

Compared with “TTTATTCTATTGTTTTGTTTATTTTCCTATGAGTCATCAGCGGAGTCACCTAGTGCAG”, “GCTTCCCCTCTACTCCTCTCCACGTTAGTTAGAGGGTACACGGAGTCACCTAGTGCAG” is lower in binding signal: 6600 fluorescence intensity (a.u.) for the first, 3520 fluorescence intensity (a.u.) for the second.

Compared with “GGCGTGACAGTAAGGGAAGGGAATGAGAGATCCTATCATCCGGAGTCACCTAGTGCAG”, “CTTCAAGCTACCTTGCTTCTCCAGATCACTCTCTTTCAGCCGGAGTCACCTAGTGCAG” is lower in binding signal: 11300 fluorescence intensity (a.u.) for the first, 4180 fluorescence intensity (a.u.) for the second.

Going from “AGAAAATATAGTGCCACGTTATATATCAGTCCATCAACACCGGAGTCACCTAGTGCAG” to “GTCCCACATAAAAGTGACTCAGCTGATTAGGCCACGTCACCGGAGTCACCTAGTGCAG”, the binding signal rises from 5780 fluorescence intensity (a.u.) to 24800 fluorescence intensity (a.u.).

Going from “ATTTGCGGATGTGTGAGTGTGACCAGTGATGTGTGCGGGACGGAGTCACCTAGTGCAG” to “CAATACATGAAAGTGAATCCTCTAACGTCGTGCAACTTATCGGAGTCACCTAGTGCAG”, the binding signal falls from 5840 fluorescence intensity (a.u.) to 3280 fluorescence intensity (a.u.).

Going from “TTTCTTCTTCGTCTCCGTCGCCTAGTCGGCTTCGCCTCCGCGGAGTCACCTAGTGCAG” to “AAACGGAAGGGGAAACAGAGAGGGAAGGAGGAAGGGGAAGCGGAGTCACCTAGTGCAG”, the binding signal rises from 3200 fluorescence intensity (a.u.) to 4600 fluorescence intensity (a.u.).

Compared with “ATTGATGTTACATGCCTCGCAAGCGATGACACGGCAAGCTCGGAGTCACCTAGTGCAG”, “TATATATAAAACGTCAGCAACGGCATGACCATTCGAAAATCGGAGTCACCTAGTGCAG” is higher in binding signal: 5060 fluorescence intensity (a.u.) for the first, 5090 fluorescence intensity (a.u.) for the second.

First: TATAGCTTGGGCAATCTCTGTGTTTGCGTTTACCGAGATGCGGAGTCACCTAGTGCAG
Second: ATATTTAACAACGGATCAAATGATAGGAAAATAATTAATACGGAGTCACCTAGTGCAG
The binding signal of the first is lower: 3460 fluorescence intensity (a.u.) for the first, 4700 fluorescence intensity (a.u.) for the second.
